Literature values in patent US20160361365A1, “TREATMENT OF CNS DISEASE WITH ENCAPSULATED INDUCIBLE CHOROID PLEXUS CELLS” (Living Cell Technologies New Zealand Limited, priority 2015, published 2016).
For at least one compound, name, drawing or mass did not settle the structure.

Test system: transthyretin
Conditions: Pulford et al. 2006; cited from earlier work

[Li] [lithium]
transthyretin level in rat CP: down-regulation
